The results in this text go back to paper PMC11563578 (eLife, 2024).

Sequences of proteins named here, by UniProt entry; tags and fusion partners are left off. A change or cut given only in a name is not applied to a line headed by its entry.
UniProt P08518: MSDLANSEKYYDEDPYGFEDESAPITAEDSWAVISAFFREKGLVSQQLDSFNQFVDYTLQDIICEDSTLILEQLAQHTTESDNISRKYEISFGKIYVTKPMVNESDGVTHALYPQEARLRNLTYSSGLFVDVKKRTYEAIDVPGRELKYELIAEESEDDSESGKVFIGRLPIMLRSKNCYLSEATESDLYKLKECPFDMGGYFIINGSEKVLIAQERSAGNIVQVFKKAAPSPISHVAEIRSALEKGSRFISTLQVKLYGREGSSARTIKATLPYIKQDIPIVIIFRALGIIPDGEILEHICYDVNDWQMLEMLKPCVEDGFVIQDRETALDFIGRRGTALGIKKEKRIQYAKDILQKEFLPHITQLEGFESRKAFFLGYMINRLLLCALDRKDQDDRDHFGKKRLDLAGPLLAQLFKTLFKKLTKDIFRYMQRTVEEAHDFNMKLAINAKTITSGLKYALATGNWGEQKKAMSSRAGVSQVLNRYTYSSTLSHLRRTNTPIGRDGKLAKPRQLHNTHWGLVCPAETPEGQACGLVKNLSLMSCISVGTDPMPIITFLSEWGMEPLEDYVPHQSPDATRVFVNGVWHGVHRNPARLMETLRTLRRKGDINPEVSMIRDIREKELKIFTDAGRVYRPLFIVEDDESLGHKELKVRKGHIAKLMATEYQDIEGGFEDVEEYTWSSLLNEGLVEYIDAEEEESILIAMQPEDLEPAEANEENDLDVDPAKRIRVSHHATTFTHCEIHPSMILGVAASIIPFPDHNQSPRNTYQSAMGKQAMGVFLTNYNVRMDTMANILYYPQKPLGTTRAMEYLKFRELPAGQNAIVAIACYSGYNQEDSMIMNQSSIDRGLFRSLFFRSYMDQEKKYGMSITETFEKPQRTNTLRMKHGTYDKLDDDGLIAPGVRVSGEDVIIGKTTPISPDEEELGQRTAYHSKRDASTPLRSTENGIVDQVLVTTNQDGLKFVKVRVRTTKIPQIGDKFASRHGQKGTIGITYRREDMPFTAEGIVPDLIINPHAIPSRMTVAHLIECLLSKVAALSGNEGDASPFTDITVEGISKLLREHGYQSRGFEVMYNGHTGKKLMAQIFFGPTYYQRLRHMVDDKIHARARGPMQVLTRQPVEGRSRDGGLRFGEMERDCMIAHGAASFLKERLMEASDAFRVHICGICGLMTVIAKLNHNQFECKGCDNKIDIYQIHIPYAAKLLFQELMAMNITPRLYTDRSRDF
UniProt P20434: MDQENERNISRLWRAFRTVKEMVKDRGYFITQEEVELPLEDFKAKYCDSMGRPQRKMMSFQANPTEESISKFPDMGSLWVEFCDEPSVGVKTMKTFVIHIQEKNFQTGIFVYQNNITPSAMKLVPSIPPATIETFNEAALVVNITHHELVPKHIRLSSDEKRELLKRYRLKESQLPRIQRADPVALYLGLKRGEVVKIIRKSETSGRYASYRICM

The target of this assay is FLAG-tagged Rpb2 (C-terminal HFH tag on RPB2, Δrpb4 strain) (S. cerevisiae) (UniProt P08518). Kind of assay: affinity purification with mass spectrometry; yeast lysate (50 mM HEPES pH 7.9, 400 mM ammonium sulfate, 10 mM MgSO4, 1 mM EDTA, 20% glycerol) on anti-FLAG M2 agarose overnight at 4°C, eluted with 3X FLAG peptide; bait Rpb3-HFH (wild type) or Rpb2-HFH (Δrpb4 strain); subunits seen by Coomassie SDS-PAGE and by MS of Q2linker-modified peptides.

Results are given in words; binding and its absence hold for the method and conditions named. In cells and extracts the contact can be indirect. These calls come from enrichment with a bait or labelling near it, and not all partners need be listed.

As to “RNA polymerase II subunit Rpb5 (from UniProt P20434 1-215)”, the binding result was “binds”.
